Laboratory results: patent US20080193519A1, “Galenic Applications of Self-Emulsifying Mixtures of Lipidic Excipients” (Aventis Pharma S.A., priority 2004, published 2008)
At least one compound was matched to its structure with a doubt left.

Test system: Caco-2/TC7 clone cells
Experiment: Transport (apparent permeability AB/BA) through Caco-2 cell monolayers
Conditions: modulator at 100 μM in the donor solution (FIG. 2)

Compound: COC(=O)C1=C(C)NC(C)=C(C(=O)OCCN(C)Cc2ccccc2)C1c1cccc([N+](=O)[O-])c1 (stereo not shown) [nicardipine, reference compound]
- modulation of the asymmetric transport of molecule A (P-glycoprotein): modulated
